Amino acid sequences for entries named in this document (tags omitted). Residues count along the entry.
UniProt Q9EP73, 19-290: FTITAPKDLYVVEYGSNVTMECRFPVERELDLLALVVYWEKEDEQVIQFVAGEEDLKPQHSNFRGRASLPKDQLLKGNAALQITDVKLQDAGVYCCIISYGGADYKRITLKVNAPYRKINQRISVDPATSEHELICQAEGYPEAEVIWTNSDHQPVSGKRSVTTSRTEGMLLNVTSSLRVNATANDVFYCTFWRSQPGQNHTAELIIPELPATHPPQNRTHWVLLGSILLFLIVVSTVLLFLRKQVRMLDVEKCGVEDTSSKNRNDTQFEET

In paper PMC12708450:

Target: PD-L1 on tumor-infiltrating Treg cells (Hepa1-6 tumors) (Mus musculus (C57BL/6J)) (UniProt Q9EP73)
Assay: flow cytometry cell binding
Conditions: comparable to chimera; protein on the cell surface; label: biotin (ELONA), 5'-Cy5 (cell binding); folded or branched DNA

## ACCGACCGTGCTGGACTCATCTCGCTTTTTTCACGGTCCACACTACTATGAGCGAGCCTGGCG [PD-L1 aptamer]
  binding result: binds

For at least one entry, the source does not settle the construct or the ends of the probe. Where cells or extracts were used, other partners may take part.
